Experimental data: PubChem BioAssay AID1259254 (NCATS, 2017)

- Screen: 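Genome-wide screen for genes that prevent DNA re-replication in cancer cells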 (primary screen)
- Cells: human HCT116 colorectal cancer cells
- Reagent: single siRNA against human genes
- Time to read-out: 3 days
- Measurement: 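Nuclei stained with Hoechst and imaged; cell-cycle phase assigned by DNA content; G2 share scaled per plate, non-targeting siRNA 0%, GMNN siRNA 100%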
- Scale: G2 robust z-score and G2 cells, % of GMNN control: higher = more G2 cells, more excess DNA replication
- Rule for the call: 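Active siRNAs have a G2 robust z of 5 or more median absolute deviations over the median, which in these data means about 38% or higher of GMNN control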
In all, the deposit lists about 59,000 reagents; below is a random part of them. About 1,550 of them (2.6%) were called active. 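G2 share is only a proxy for re-replication; each gene was hit by three separate siRNAs, and active genes were retested.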 A number with no mark means an inactive call. The numbers tell different reagents against one gene apart. Not all columns of the deposit are shown. Not given: the amount of reagent.

target | siRNA no. | G2 robust z-score | G2 cells, % of GMNN control
TBX10 | 1 | -1.28 | -6.03
TBX10 | 2 | 0.246 | 4.7
TBX10 | 3 | -0.434 | -0.0854
HINT2 | 1 | -0.724 | -2.13
HINT2 | 2 | 1.23 | 11.6
HINT2 | 3 | -0.575 | -1.08
AK9 | 1 | 0.563 | 6.93
AK9 | 2 | 0.979 | 9.86
AK9 | 3 | -0.305 | 0.821
AK9 | 4 | -0.429 | -0.0526
AK9 | 5 | -0.244 | 1.25
AK9 | 6 | 2.48 | 20.4
AK9 | 7 | 0.751 | 8.25
AK9 | 8 | -0.665 | -1.71
AK9 | 9 | 1 | 10
CFAP184 | 1 | -0.25 | 1.21
CFAP184 | 2 | -0.764 | -2.4
CFAP184 | 3 | -0.623 | -1.41
QTMAN | 1 | 0.233 | 4.61
QTMAN | 2 | -0.854 | -3.04
QTMAN | 3 | 0.0933 | 3.62
ATXN3 | 1 | -0.263 | 1.12
ATXN3 | 2 | 1.05 | 10.3
ATXN3 | 3 | 3.97 | 30.9
ZBTB44 | 1 | 0.878 | 9.14
ZBTB44 | 2 | 0.204 | 4.4
ZBTB44 | 3 | 0.412 | 5.87
GPR65 | 1 | -0.534 | -0.791
GPR65 | 2 | -1.11 | -4.83
GPR65 | 3 | 3.1 | 24.8
PLA2G15 | 1 | -0.557 | -0.95
PLA2G15 | 2 | 0.158 | 4.08
PLA2G15 | 3 | -1.53 | -7.83

Entries above whose gene name begins with P or p:
target | siRNA no. | G2 robust z-score | G2 cells, % of GMNN control
PLA2G15 | 1 | -0.557 | -0.95
PLA2G15 | 2 | 0.158 | 4.08
PLA2G15 | 3 | -1.53 | -7.83

The results go on:
target | siRNA no. | G2 robust z-score | G2 cells, % of GMNN control
ARF1 | 1 | 0.366 | 5.54
ARF1 | 2 | -0.369 | 0.371
ARF1 | 3 | 4.99 | 38
CAPS | 1 | 1.47 | 13.3
CAPS | 2 | 3.83 | 29.9
CAPS | 3 | -1.31 | -6.25
TFEC | 1 | -1.43 | -7.11
TFEC | 2 | 0.0863 | 3.57
TFEC | 3 | -0.254 | 1.18
CD2BP2 | 1 | -1.83 | -9.94
CD2BP2 | 2 | 0.118 | 3.8
CD2BP2 | 3 | -0.405 | 0.119
MRPS21 | 1 | 0.714 | 7.99
MRPS21 | 2 | 3.23 | 25.7
MRPS21 | 3 | -0.016 | 2.85
FBL | 1 | 2.01 | 17.1
FBL | 2 | 6.9 (active) | 51.5
FBL | 3 | -1.02 | -4.2
ZNF324 | 1 | -0.653 | -1.62
ZNF324 | 2 | 0.443 | 6.09
ZNF324 | 3 | -0.551 | -0.91
OR5M10 | 1 | 1.25 | 11.8
OR5M10 | 2 | 3.57 | 28.1
OR5M10 | 3 | 2.07 | 17.6
EXOC3 | 1 | 2.2 | 18.4
EXOC3 | 2 | 1.08 | 10.6
EXOC3 | 3 | -0.184 | 1.67
STAP2 | 1 | 1.27 | 11.9
STAP2 | 2 | -0.316 | 0.747
STAP2 | 3 | 0.684 | 7.78
RAB21 | 1 | 4.53 | 34.8
RAB21 | 2 | -0.599 | -1.25
RAB21 | 3 | -0.532 | -0.774
RHPN1 | 1 | -0.653 | -1.63
RHPN1 | 2 | 1.33 | 12.4
RHPN1 | 3 | 0.417 | 5.9
